The values that follow come from the supplement of paper PMC10849652.

Amino acid sequences for entries named in this document (tags omitted). A change or cut given only in a name is not applied to a line headed by its entry.
UniProt Q06413, whole entry, looked up: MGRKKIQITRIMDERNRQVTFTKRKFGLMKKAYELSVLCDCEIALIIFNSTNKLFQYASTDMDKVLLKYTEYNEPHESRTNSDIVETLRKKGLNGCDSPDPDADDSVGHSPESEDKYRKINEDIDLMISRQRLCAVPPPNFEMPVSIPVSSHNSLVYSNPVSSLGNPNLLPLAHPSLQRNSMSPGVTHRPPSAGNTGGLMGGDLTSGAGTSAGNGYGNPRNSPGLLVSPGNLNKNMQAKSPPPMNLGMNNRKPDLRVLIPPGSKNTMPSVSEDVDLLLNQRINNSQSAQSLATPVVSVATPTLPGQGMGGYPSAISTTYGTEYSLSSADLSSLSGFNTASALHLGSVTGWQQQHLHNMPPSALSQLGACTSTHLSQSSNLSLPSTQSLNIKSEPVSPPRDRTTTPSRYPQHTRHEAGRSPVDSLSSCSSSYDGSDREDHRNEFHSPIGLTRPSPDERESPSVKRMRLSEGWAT
UniProt Q9NZL9, whole entry, looked up: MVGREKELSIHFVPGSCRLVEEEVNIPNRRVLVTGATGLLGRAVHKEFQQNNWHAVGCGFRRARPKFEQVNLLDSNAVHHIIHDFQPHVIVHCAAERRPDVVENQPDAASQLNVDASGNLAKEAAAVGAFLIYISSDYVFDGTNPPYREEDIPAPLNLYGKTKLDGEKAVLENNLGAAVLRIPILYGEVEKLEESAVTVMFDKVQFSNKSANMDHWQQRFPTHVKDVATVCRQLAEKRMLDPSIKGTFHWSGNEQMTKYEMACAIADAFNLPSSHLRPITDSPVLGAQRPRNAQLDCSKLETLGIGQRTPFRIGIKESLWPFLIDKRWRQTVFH
UniProt Q12866: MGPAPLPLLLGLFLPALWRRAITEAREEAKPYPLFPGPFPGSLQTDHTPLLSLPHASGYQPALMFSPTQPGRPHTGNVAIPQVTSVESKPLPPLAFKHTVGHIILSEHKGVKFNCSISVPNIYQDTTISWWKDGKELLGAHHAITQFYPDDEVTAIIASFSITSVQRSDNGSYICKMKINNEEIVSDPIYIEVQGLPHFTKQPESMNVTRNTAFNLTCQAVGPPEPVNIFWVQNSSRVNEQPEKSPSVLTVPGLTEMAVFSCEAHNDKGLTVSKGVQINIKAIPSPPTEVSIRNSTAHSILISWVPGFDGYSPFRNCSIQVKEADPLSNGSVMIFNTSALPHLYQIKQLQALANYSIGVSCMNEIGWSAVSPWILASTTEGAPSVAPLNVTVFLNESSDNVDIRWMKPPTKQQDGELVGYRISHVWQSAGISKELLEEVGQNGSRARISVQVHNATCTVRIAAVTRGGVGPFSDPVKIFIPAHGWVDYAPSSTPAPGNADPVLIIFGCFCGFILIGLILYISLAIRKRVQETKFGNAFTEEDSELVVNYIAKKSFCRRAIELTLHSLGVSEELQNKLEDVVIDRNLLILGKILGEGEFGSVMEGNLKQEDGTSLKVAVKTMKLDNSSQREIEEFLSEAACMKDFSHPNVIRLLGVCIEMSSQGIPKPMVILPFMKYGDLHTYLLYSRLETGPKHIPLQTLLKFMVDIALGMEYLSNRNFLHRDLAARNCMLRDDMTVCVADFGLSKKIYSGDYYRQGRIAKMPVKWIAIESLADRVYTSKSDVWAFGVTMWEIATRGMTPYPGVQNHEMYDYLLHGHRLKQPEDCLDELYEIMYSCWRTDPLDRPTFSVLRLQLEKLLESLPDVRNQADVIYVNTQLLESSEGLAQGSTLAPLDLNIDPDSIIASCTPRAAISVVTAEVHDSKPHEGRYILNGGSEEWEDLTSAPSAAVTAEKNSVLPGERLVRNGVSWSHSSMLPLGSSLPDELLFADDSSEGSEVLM
UniProt Q9HCC0: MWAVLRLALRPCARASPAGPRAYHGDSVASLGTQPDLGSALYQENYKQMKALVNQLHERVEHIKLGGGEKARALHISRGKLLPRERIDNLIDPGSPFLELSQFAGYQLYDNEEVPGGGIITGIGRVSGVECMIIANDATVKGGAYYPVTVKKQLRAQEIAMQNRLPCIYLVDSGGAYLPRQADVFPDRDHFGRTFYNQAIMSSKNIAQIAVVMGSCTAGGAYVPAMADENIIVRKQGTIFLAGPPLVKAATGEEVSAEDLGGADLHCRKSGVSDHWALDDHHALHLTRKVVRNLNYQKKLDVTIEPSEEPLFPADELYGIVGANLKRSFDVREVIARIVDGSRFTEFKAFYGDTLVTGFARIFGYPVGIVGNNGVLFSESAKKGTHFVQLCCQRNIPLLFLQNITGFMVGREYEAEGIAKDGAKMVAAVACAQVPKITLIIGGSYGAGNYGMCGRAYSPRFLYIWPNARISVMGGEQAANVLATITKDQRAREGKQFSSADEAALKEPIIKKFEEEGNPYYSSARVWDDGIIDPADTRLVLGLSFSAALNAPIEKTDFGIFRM
UniProt Q96RQ3: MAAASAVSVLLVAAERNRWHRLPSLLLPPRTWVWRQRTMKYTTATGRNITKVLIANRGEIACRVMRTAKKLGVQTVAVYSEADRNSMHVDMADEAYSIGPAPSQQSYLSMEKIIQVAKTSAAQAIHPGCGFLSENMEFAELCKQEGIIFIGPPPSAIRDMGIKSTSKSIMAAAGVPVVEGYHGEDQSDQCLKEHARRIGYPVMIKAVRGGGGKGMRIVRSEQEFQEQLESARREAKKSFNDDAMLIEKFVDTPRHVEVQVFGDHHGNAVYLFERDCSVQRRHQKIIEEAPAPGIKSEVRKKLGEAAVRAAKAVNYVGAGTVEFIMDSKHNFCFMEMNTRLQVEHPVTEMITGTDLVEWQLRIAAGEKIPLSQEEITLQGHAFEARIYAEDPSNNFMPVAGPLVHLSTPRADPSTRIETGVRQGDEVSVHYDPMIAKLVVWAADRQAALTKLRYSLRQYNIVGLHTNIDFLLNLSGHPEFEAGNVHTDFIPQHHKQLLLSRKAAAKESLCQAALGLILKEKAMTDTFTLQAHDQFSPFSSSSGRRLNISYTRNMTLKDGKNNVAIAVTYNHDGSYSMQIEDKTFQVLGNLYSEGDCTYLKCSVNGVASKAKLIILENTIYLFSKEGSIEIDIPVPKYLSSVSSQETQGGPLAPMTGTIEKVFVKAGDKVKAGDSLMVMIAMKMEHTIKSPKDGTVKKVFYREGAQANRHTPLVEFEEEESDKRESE
UniProt Q9UQ53: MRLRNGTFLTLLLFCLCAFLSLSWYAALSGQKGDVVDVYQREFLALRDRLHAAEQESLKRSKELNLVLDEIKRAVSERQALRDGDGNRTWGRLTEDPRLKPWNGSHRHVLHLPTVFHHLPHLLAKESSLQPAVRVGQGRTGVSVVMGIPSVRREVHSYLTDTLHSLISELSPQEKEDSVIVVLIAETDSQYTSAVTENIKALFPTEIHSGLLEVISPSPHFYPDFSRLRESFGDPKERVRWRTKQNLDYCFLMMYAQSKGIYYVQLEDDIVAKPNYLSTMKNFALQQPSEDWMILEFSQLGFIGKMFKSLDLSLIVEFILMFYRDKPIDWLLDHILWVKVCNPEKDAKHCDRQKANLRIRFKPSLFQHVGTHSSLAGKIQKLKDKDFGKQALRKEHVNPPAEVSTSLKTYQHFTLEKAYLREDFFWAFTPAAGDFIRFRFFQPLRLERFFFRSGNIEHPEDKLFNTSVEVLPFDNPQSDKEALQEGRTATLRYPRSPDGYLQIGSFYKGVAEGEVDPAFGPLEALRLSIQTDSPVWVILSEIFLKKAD
UniProt O60244: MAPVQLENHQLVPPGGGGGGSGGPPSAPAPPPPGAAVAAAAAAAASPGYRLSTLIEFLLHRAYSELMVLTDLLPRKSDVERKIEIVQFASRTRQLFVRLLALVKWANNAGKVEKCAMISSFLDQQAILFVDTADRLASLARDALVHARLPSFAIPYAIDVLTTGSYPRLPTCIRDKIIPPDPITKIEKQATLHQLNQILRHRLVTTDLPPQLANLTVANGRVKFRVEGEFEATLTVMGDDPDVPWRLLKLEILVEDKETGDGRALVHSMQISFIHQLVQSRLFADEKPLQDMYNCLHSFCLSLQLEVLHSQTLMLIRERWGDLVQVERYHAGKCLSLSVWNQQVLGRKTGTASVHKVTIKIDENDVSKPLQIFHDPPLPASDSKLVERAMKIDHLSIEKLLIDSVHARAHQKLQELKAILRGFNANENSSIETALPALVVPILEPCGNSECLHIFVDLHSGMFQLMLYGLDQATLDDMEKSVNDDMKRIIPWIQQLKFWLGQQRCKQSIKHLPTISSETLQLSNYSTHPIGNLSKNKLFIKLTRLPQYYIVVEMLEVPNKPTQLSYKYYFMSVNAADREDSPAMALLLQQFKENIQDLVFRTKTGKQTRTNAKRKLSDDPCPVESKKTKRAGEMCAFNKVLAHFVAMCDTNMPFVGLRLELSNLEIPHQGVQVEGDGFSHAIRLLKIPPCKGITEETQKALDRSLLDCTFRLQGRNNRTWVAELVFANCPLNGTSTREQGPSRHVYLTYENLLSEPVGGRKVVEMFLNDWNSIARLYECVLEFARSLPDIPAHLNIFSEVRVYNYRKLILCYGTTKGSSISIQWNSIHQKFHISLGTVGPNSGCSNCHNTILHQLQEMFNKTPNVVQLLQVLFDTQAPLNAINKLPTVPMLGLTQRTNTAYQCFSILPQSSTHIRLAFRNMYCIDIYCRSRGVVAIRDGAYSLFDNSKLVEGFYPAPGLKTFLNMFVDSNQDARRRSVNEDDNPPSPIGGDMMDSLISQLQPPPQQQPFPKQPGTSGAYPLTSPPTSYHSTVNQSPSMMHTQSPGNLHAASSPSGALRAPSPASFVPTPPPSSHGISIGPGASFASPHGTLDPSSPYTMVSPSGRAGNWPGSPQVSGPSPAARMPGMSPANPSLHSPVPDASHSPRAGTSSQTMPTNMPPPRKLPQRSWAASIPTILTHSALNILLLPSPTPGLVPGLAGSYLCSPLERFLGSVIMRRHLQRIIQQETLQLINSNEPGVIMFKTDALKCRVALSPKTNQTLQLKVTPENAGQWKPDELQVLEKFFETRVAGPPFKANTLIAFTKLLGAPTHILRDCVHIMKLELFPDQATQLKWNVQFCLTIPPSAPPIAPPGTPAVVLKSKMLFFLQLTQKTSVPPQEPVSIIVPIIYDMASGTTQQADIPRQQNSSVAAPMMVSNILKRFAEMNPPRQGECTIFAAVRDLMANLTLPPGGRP
UniProt P50579: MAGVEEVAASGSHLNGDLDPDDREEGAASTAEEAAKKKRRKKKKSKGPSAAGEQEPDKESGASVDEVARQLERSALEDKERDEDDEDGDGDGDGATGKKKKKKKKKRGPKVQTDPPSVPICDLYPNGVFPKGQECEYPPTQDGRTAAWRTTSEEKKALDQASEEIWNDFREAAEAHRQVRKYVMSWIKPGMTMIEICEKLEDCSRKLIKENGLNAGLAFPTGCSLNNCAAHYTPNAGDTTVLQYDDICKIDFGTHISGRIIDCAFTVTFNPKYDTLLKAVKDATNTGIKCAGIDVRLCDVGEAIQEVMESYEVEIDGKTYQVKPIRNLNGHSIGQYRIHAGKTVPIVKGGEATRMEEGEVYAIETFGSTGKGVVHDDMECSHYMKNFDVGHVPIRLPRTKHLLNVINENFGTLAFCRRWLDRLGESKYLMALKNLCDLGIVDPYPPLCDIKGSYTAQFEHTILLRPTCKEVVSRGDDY
UniProt Q14814: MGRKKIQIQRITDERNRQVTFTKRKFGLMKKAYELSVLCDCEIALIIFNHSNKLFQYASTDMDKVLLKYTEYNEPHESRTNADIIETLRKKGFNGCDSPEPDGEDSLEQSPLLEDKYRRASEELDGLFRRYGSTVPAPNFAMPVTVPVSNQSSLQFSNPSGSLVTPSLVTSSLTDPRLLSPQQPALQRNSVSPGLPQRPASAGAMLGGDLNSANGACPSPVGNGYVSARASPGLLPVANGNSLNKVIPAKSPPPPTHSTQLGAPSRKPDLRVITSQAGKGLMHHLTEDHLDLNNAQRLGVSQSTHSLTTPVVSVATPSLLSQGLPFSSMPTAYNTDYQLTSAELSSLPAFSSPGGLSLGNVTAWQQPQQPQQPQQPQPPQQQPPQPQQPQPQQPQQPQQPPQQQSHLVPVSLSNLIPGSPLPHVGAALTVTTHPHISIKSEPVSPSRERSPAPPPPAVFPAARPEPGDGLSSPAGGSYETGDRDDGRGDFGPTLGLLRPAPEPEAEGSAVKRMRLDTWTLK
UniProt Q9BTT4: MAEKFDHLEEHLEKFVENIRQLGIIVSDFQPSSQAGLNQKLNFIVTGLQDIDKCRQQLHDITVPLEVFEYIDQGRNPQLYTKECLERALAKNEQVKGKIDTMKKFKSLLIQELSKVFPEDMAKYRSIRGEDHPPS
UniProt Q8TCB7: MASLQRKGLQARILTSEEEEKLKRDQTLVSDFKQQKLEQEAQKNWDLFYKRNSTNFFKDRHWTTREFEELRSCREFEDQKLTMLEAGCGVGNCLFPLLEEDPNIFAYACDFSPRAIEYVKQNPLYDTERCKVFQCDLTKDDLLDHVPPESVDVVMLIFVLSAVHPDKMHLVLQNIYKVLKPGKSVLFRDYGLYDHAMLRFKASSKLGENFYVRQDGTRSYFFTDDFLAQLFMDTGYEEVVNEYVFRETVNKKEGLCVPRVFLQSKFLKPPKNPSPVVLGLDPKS

Some of the results follow.

Compound in the first test: Cc1nc(Nc2n[nH]c3c2CN(C(=O)N[C@H](CN(C)C)c2ccccc2)C3(C)C)c2sccc2n1
Nature of the test: log2 fold change, soluble protein after heating vs DMSO (PISA); higher = thermal stabilisation; K562 cells, 10 uM, 30 min; active = over 0.2 and 3.5 SD of the protein, either way, in both replicates (recomputed). Summed up: (§1)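 Quantification of soluble protein used TMTpro 16plex LC-MS/MS, with channel sums equalised. Samples were the supernatant after 21,000xg for 90 min of pooled aliquots from K562 cells (2×10^6 cells/mL) treated with 10 μM compound for 30 min, heated for 3 min over 48°C-58°C, and extracted in PBS with 0.5% NP-40 at 4°C. Values, from duplicates, describe thermal stability against control samples on a log2 fold-change scale.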
On to MCM2 (UniProt P49736), for which the log2 fold change is inactive: -0.013.

Regarding MESD (UniProt Q14696), the log2 fold change was inactive: 0.023.

MCRIP1 (UniProt I3L4Q0): the log2 fold change was inactive: 0.019. Still for that read-out and setting: under MDN1 (UniProt Q9NU22) stands inactive: -0.195; under MED23 (UniProt Q9ULK4), inactive: -0.047; under METTL7A (UniProt Q9H8H3), inactive: -0.002. The same measure, in the same setting: the result for MCM5 (UniProt P33992) reads inactive: -0.022; that for METTL5 (UniProt Q9NRN9), inactive: 0.015. As for MECR (UniProt Q9BV79), the log2 fold change is inactive: 0.007. Turning to MBOAT1 (UniProt Q6ZNC8), the log2 fold change was inactive: -0.044. For MEF2C isoform 5 (UniProt Q06413), the log2 fold change was inactive: -0.065.

As for MAT2B (UniProt Q9NZL9), the log2 fold change was inactive: 0.002.

On to METTL21A (UniProt Q8WXB1), for which the log2 fold change is inactive: -0.026. Still for that read-out and setting: the result for MERTK (UniProt Q12866) reads inactive: -0.053. On the same count and under the same terms, the result for MCM3 isoform 2 (UniProt P25205) reads inactive: -0.011. On the same count and under the same terms, the result for MCCC2 (UniProt Q9HCC0) reads inactive: -0.012; that for MED30 (UniProt Q96HR3), inactive: -0.037; that for MED18 (UniProt Q9BUE0), inactive: -0.092. Turning to MFAP1 (UniProt P55081), the log2 fold change was inactive: -0.075.

Regarding MCCC1 (UniProt Q96RQ3), the log2 fold change is inactive: 0.033.

With MGAT4B isoform 3 (UniProt Q9UQ53), the log2 fold change was inactive: 0.009. Same read-out and setting: under MED14 (UniProt O60244) stands inactive: -0.134; under MFSD10 (UniProt Q14728), inactive: 0.06; under METAP1 (UniProt P53582), inactive: -0.005. On to MGST3 (UniProt O14880), for which the log2 fold change is inactive: 0.012. Take METAP2 (UniProt P50579): the log2 fold change was inactive: 0. On the same count and under the same terms, under MBNL1 (UniProt Q9NR56) stands inactive: -0.033; under MEAF6 isoform 3 (UniProt Q9HAF1), inactive: 0.064; under MFSD14B (UniProt Q5SR56), inactive: -0.015.

On to MBD3 (UniProt O95983), for which the log2 fold change is inactive: -0.019. In the case of MED15 (UniProt Q96RN5), the log2 fold change was inactive: 0.034. As to MED24 (UniProt O75448), the log2 fold change is inactive: 0.003. The same measure, in the same setting: the result for MEF2D (UniProt Q14814) reads inactive: 0.007; that for METTL25 (UniProt Q8N6Q8), inactive: -0.007.

Turning to MED10 (UniProt Q9BTT4), the log2 fold change is inactive: 0.103.

Compound in the next test: Cc1nc(Nc2ncc(C(=O)Nc3c(C)cccc3Cl)s2)cc(N2CCN(CCO)CC2)n1 [dasatinib]
The description is as above. Summed up: as §1
Consider MCM2 (UniProt P49736), for which the log2 fold change is inactive: -0.06. On the same count and under the same terms, the result for MESD (UniProt Q14696) reads inactive: 0.084. Take MCRIP1 (UniProt I3L4Q0): the log2 fold change was inactive: 0.

With MDN1 (UniProt Q9NU22), the log2 fold change was inactive: -0.245.

As for MED23 (UniProt Q9ULK4), the log2 fold change was inactive: -0.006. Still for that read-out and setting: the result for METTL7A (UniProt Q9H8H3) reads inactive: 0.044. As to MCM5 (UniProt P33992), the log2 fold change is inactive: -0.045. Take METTL5 (UniProt Q9NRN9): the log2 fold change is inactive: -0.012.

As to MECR (UniProt Q9BV79), the log2 fold change is inactive: -0.024. Regarding METTL2B (UniProt Q6P1Q9), the log2 fold change is inactive: -0.114. Same read-out and setting: under MBOAT1 (UniProt Q6ZNC8) stands inactive: -0.101; under MEF2C isoform 5 (UniProt Q06413), inactive: 0.092.

MAT2B (UniProt Q9NZL9): the log2 fold change was inactive: 0.074. As for METTL21A (UniProt Q8WXB1), the log2 fold change is inactive: 0.005. Same read-out and setting: under MERTK (UniProt Q12866) stands inactive: 0.057; under MCM3 isoform 2 (UniProt P25205), inactive: -0.035. Still for that read-out and setting: under MCCC2 (UniProt Q9HCC0) stands inactive: 0.058; under MED30 (UniProt Q96HR3), inactive: 0.076. For the target METTL6 (UniProt Q8TCB7), the log2 fold change is inactive: 0.052. For MED18 (UniProt Q9BUE0), the log2 fold change was inactive: 0.007.

Take MFAP1 (UniProt P55081): the log2 fold change was inactive: 0.054. Still for that read-out and setting: under MCCC1 (UniProt Q96RQ3) stands inactive: -0.119; under MGAT4B isoform 3 (UniProt Q9UQ53), inactive: 0.004. In the case of MED14 (UniProt O60244), the log2 fold change was inactive: -0.078. For the target MFSD10 (UniProt Q14728), the log2 fold change is inactive: 0.015.

As for METAP1 (UniProt P53582), the log2 fold change is inactive: -0.04. On the same count and under the same terms, under MGST3 (UniProt O14880) stands inactive: 0.069; under METAP2 (UniProt P50579), inactive: 0.073. Take MCRIP2 (UniProt Q9BUT9): the log2 fold change was inactive: 0.08. Same read-out and setting: the result for MBNL1 (UniProt Q9NR56) reads inactive: 0.096; that for MEAF6 isoform 3 (UniProt Q9HAF1), inactive: 0.06.

For MFSD14B (UniProt Q5SR56), the log2 fold change was inactive: 0.027. On the same count and under the same terms, the result for MBD3 (UniProt O95983) reads inactive: 0.015; that for MED15 (UniProt Q96RN5), inactive: -0.071; that for MED24 (UniProt O75448), inactive: -0.007. For MEF2D (UniProt Q14814), the log2 fold change is inactive: -0.072.

METTL25 (UniProt Q8N6Q8): the log2 fold change was inactive: 0.133. Same read-out and setting: under MED10 (UniProt Q9BTT4) stands inactive: 0.096.
